# The whole screen tested about 360,000 compounds, of which about 7,500 (2.1%) were called active. The inconclusive results got no clear call from the source; some entries with a clear call stand among them for comparison. Calls come from the whole dose curve; as a rule, active = well fitted inhibition curve with a large enough effect; inconclusive = small, poorly fitted or top-dose-only effect, or effect the other way; inactive = flat fitted curve, though single readings scatter. Potencies of inconclusive entries are doubtful fits and often do not repeat.
# Assay: Nrf2 qHTS screen for inhibitors; note: nearly all actives have a fitted effect of over 60% in size
# Conditions: A549 ARE-Fluc reporter, luciferase luminescence, 18-24 h; activity change, negative = inhibition: at 46 µM (top of the series)
# Procedure, shortened: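 Nrf2 function is reported as luminescence of an ARE-controlled luciferase in A549 cells. Compounds were tested at several concentrations, and a CellTiter-Fluor read on the same wells flagged cytotoxicity.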
# % is set by controls: 0 for no effect and ±100 for the full control effect; potency is the fitted concentration of half-maximal effect.
SMILES,Potency,"activity change, negative = inhibition"
Cc1cc(C(=O)Nc2cccc(S(=O)(=O)N3CCCC3)c2)c2ccccc2n1,"inconclusive: 20.6 µM [falling, single point]",–
O=C(CCS(=O)(=O)c1ccccc1)Nc1nc(-c2ccc(F)cc2)cs1,"inconclusive: 9.2 µM [falling, partial curve]",–
Cc1nc(-c2noc(-c3cccc(Cl)c3)n2)c(C(F)(F)F)o1,"inconclusive: 16.4 µM [activator, partial curve, poor fit]",–
CCOC(=O)C(O)(CCC(O)(C(=O)OCC)C(=O)OCC)C(=O)OCC,"inconclusive: 32.6 µM [falling, single point]",–
CN(C(=O)COC(=O)c1ccccc1C(=O)c1ccccc1)c1ccccc1,–,inactive: -7.01%
NC(=O)c1c(C(F)(F)F)cc(-c2ccccc2)nc1NCCO,–,inactive: -28.7%
COc1cccc(CNC(=O)C2CCN(C(=O)c3cnn(-c4ccccc4)c3-n3cccc3)CC2)c1,"inconclusive: 20.6 µM [falling, single point]",–
CC(C)(C)NC(=S)Nc1ccc(Br)cc1,"inconclusive: 6.51 µM [falling, partial curve, poor fit]",–
FC(F)(F)COc1nc(OCC(F)(F)F)nc(N2CCN(c3ccccc3)CC2)n1,–,inactive: -24.5%
COc1ccc(OC)c(NC(=O)c2[nH]c(C)c(C(C)=O)c2C)c1,–,inactive: 11.5%
CCN(C(=O)CSc1nnc2c3ccccc3n(CC)c2n1)C1CCS(=O)(=O)C1 (configuration not stated),–,inactive: -16%
CCN(CC)S(=O)(=O)c1cccc(-c2nnc(SCCCC(=O)c3ccc(F)cc3)o2)c1,active: 23.1 µM,–
O=C(COC(=O)c1ccc([N+](=O)[O-])o1)NCc1ccc(F)cc1,–,inactive: -17.9%
CC(C)(C)NCC(=Cc1ccccc1)C(=O)c1ccccc1,"inconclusive: 29.1 µM [falling, single point]",–
Cc1cc(C(=O)N2CCN(c3ncccn3)CC2)sc1-c1ccccc1,"inconclusive: 25.9 µM [falling, single point]",–
Cc1c(CCC(=O)O)c(=O)oc2cc(OCc3ccccc3Br)ccc12,active: 20.6 µM,–
CCCNC(=O)/C=C/c1ccc(C(C)C)cc1,–,inactive: 21.3%
Cc1c(Cl)cccc1NC(c1ccc(F)cc1)c1nnc(-c2ccccc2)o1 (configuration not stated),"inconclusive: 16.4 µM [activator, single point]",–
Cc1ccc(Cc2cnc(NC(=O)c3ccco3)s2)cc1,"inconclusive: 1.84 µM [activator, partial curve]",–
O=C(Cn1cccc1C(=O)c1ccccc1)NCc1ccccc1Cl,"inconclusive: 9.2 µM [activator, partial curve]",–
CCn1nc(C)c(CNC(=O)Nc2ccccc2C(=O)OC)c1C,"inconclusive: 25.9 µM [falling, partial curve, poor fit]",–
COc1ccc(CNc2nc3c(-c4cccc(F)c4)nnn3c3ccccc23)cc1,"inconclusive: 29.1 µM [activator, single point]",–
Cc1ccc(NS(=O)(=O)c2ccc(C(=O)NNC(=O)c3ccccc3O)cc2)cc1,–,inactive: 15%

# Structures above that have a Cl atom, in the order listed:
SMILES,Potency,"activity change, negative = inhibition"
Cc1nc(-c2noc(-c3cccc(Cl)c3)n2)c(C(F)(F)F)o1,"inconclusive: 16.4 µM [activator, partial curve, poor fit]",–
Cc1c(Cl)cccc1NC(c1ccc(F)cc1)c1nnc(-c2ccccc2)o1 (configuration not stated),"inconclusive: 16.4 µM [activator, single point]",–
O=C(Cn1cccc1C(=O)c1ccccc1)NCc1ccccc1Cl,"inconclusive: 9.2 µM [activator, partial curve]",–

# Additional structures

SMILES,Potency,"activity change, negative = inhibition"
CCn1c(SCC(=O)c2ccc(Cl)s2)nnc1-c1cccs1,"inconclusive: 20.6 µM [activator, partial curve]",–
COc1ccc2c(c1)c(=O)cc(-c1ccccc1)n2C,"inconclusive: 11.2 µM [activator, single point]",–
CC(=O)NC(=S)Nc1sc2c(c1C#N)CCCCC2,"inconclusive: 0.731 µM [activator, partial curve, poor fit]",–
COCc1c(C(=O)N2CCc3ccccc32)oc2ccccc12,"inconclusive: 16.4 µM [activator, single point]",–
COc1ccc(N(C)C(=O)c2cc3c(s2)-c2c(C)cccc2OC3)c(OC)c1,active: 20.6 µM,–
Clc1ccccc1-c1nc2nc3ccccc3nc2n1-c1ccc2c(c1)OCO2,"inconclusive: 29.1 µM [falling, single point]",–
COc1ccc(-c2ccc(-c3noc(C(C)C)n3)c(OC)n2)cc1,–,inactive: 2.03%
COC(=O)c1cccc(NC(=O)c2cc3ccccc3o2)c1,"inconclusive: 5.8 µM [activator, full curve]",–
Cc1cc(C)n(-c2cc(N3CCN(C(=O)c4cccc(Br)c4)CC3)ccc2[N+](=O)[O-])n1,"inconclusive: 29.1 µM [falling, partial curve, poor fit]",–
Cc1ccc(C(=O)OCc2nc3ccsc3c(=O)[nH]2)o1,"inconclusive: 6.51 µM [activator, single point]",–
Nc1nc(CSc2ncn(-c3ccccc3)n2)cs1,"inconclusive: 1.84 µM [activator, partial curve, poor fit]",–
COc1ccc(CNC(=O)c2ccc(N(C)S(=O)(=O)c3ccc(C)cc3)cc2)cc1,"inconclusive: 16.4 µM [falling, partial curve]",–
COc1ncnc2c1sc1nc(-c3ccccc3)c3c(c12)CCCC3,–,inactive: 2.32%
Cc1c(C(=O)Nc2cccc(S(=O)(=O)N3CCOCC3)c2)oc2ccccc12,–,inactive: 1.34%
FC(F)Sc1ccc(NC(=S)N2CCN(c3ccccn3)CC2)cc1,"inconclusive: 18.4 µM [falling, single point]",–
O=C(Nc1cc(C(F)(F)F)ccc1-n1cncn1)c1ccc(-c2ccccc2)cc1,"inconclusive: 2.91 µM [falling, full curve, poor fit]",–
COc1ccc(CN2C[C@H](Cc3ccccc3)[C@@H](CC(=O)Nc3ccccc3)C2=O)cc1,"inconclusive: 29.1 µM [falling, single point]",–
COc1cc(Cl)c(C)cc1NC(=O)CCc1nc2cccnc2n1Cc1cccs1,"inconclusive: 18.4 µM [falling, single point]",–
CCOc1cc(/C=N\O)cc(Cl)c1OCC,"inconclusive: 13 µM [falling, partial curve, poor fit]",–
O=C(NC(=S)NCCC1=CCCCC1)c1ccccc1Br,"inconclusive: 29.1 µM [activator, single point]",–
Cc1ccc(-n2c(=O)c3c4c(sc3n(CC(=O)Nc3cccc(Cl)c3)c2=O)CCCCC4)cc1C,–,inactive: -8.14%
Cc1ccccc1N1C(=O)C2ON(c3ccccc3)C(c3ccncc3)C2C1=O (configuration not stated),"inconclusive: 2.91 µM [activator, single point]",–
Fc1ccc(C(NCCc2ccccc2)c2nnc(-c3ccccc3Cl)o2)cc1 (configuration not stated),–,inactive: -5.24%

SMILES,Potency,"activity change, negative = inhibition"
Cc1ccc(C(=O)NCc2ccco2)cc1S(=O)(=O)N1CCCCC1,–,inactive: -7.92%
Cc1ccc(S(=O)(=O)NCc2nc3nc(C)cc(C)n3n2)cc1,"inconclusive: 23.1 µM [activator, single point]",–
Cc1ccc(NC(=O)CSCC(=O)N(CCC(C)C)c2c(N)n(Cc3ccccc3)c(=O)[nH]c2=O)cc1,"inconclusive: 23.1 µM [falling, partial curve, poor fit]",–
O=C1C2CCC(C2)C1CN1CCOCC1 (configuration not stated),–,inactive: -19.1%
O=C(Cc1cn(Cc2cccc(Cl)c2)c2ccccc12)N1CCCCCC1,"inconclusive: 23.1 µM [falling, partial curve, poor fit]",–
CC(O)CN(CC(C)O)c1ccc2c(c1)Cc1cc([N+](=O)[O-])ccc1-2 (configuration not stated),"inconclusive: 18.4 µM [falling, partial curve, poor fit]",–
CCOc1ccc(N(C)S(=O)(=O)c2ccc(C)c(C(=O)NCCc3ccc(OC)cc3)c2)cc1,"inconclusive: 29.1 µM [falling, single point]",–
Cc1ccc2nc(-c3cccc(NC(=O)c4ccc5c(c4)OCCO5)c3)oc2c1,"inconclusive: 1.46 µM [falling, full curve, poor fit]",–
COc1ccc(NC(=O)c2sc(N3CCOCC3)nc2-c2ccccc2)c(OC)c1,"inconclusive: 6.51 µM [falling, partial curve, poor fit]",–
O=C(CSc1ccc2ccccc2n1)N/N=C/c1ccc(O)cc1,"inconclusive: 32.6 µM [falling, single point]",–
O=C(O)c1cccc(NC(=S)NC(=O)c2ccc(-c3ccc(Cl)cc3)o2)c1,"inconclusive: 2.59 µM [activator, partial curve]",–
O=C(Nc1nc(-c2ccc3ccccc3c2)cs1)c1ccc(N2C(=O)CCC2=O)cc1,"inconclusive: 0.116 µM [falling, full curve, poor fit]",–
CC1(C)Cc2nc3oc4c(=O)n(CC(=O)Nc5ccccc5)cnc4c3cc2CO1,"inconclusive: 23.1 µM [activator, partial curve, poor fit]",–
COc1ccc2c(c1)CCc1c(C(=O)NCc3ccc(Cl)cc3)noc1-2,"inconclusive: 29.1 µM [falling, single point]",–
Cc1ccccc1OCCCCn1c(CCNC(=O)C(C)(C)C)nc2ccccc21,active: 23.1 µM,–
CC1=C(C(=O)OCc2ccccc2)C(c2cccc([N+](=O)[O-])c2)NC(=O)N1 (configuration not stated),"inconclusive: 18.4 µM [falling, partial curve]",–
Cc1cc2c(s1)c1cnn(Cc3ccc(-c4ccccc4)cc3)c(=O)c1n2C,–,inactive: 13.5%
O=C(CNC(=O)c1sc2ccccc2c1Cl)NCc1ccc(F)cc1,"inconclusive: 7.31 µM [falling, partial curve, poor fit]",–
COc1cccc(N2CCN(C(=O)c3cc(-c4ccc(F)cc4)[nH]c3C)CC2)c1,"inconclusive: 29.1 µM [falling, single point]",–
O=c1cc(O)nc(SCc2ccccc2)n1-c1ccc(Cl)cc1,–,inactive: -3.7%
O=C(O)CCn1c(SCc2cc(=O)n3ccccc3n2)nc2ccsc2c1=O,"inconclusive: 2.31 µM [activator, partial curve]",–
